From PMC3908380
No constants are given. Whether binding was seen depends on the method and setting. Binding seen in cells or lysates may run through a third protein. These calls come from enrichment with a bait or labelling near it, and not all partners need be listed.

Tests used:
[1] = target: T1, InR (Drosophila Melanogaster) (UniProt P09208); assay: affinity purification with mass spectrometry; TAP/MS of the Drosophila Insulin pathway dataset: TAP-tagged bait pulled down via its tag from cell lysates, peptides identified by MS, spectral counts in replicates; time points 0, 10 and 30 minutes; negative control purifications; bait-prey pairs scored as significant by PPIRank (and SAINT)
T1 sequence: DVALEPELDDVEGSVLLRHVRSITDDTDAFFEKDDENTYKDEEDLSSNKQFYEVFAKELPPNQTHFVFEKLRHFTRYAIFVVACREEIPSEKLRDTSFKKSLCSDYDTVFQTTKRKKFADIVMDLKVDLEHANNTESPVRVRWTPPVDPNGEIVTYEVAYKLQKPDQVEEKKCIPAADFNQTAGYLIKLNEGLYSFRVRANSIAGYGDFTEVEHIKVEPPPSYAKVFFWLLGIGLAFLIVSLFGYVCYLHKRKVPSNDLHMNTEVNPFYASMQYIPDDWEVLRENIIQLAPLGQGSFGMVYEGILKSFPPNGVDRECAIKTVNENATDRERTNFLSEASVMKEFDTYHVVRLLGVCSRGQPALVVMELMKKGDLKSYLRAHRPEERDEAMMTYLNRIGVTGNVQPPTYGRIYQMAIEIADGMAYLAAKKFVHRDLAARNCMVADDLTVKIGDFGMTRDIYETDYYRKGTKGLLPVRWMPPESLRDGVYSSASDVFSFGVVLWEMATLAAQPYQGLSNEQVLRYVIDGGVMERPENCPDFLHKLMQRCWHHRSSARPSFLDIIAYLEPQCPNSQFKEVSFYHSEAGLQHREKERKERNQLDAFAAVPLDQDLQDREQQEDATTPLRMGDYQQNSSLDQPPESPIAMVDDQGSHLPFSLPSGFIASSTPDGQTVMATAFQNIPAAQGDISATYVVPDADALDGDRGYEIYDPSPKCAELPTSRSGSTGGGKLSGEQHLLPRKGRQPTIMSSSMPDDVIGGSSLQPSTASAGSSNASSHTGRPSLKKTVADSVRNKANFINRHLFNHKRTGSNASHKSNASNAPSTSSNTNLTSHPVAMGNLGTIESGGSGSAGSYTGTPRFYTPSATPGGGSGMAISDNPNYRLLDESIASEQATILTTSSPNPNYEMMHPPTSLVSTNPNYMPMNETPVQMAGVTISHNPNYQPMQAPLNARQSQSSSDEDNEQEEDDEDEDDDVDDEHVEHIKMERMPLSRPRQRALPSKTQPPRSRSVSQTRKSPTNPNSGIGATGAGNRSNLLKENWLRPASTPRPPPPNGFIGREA

[2] = target: Pi3K21B (Drosophila Melanogaster); assay: as above

B1: chico (protein, UniProt Q9XTN2 1-968)
chain: MASISDDGMALSGYLKKLKTMKKKFFVLYEETSTSAARLEYYDTEKKFLQRAEPKRVIYLKNCFNINRRLDTKHRFVIVLSSRDGGFGIVLENENDLRKWLDKLLVLQRNIANSNGTAHSPYDHVWQVVIQKKGISEKVGITGTYHCCLTSKSLTFVCIGPEKTPNGEDRVASIEILLTTIRRCGHASPQCIFYVELGRQSVLGSGDLWMETDNAAIATNMHNTILSAMSAKTESNTNLINVYQNRPDLSHEPMRKRSSSANEASKPINVNVIQNSQNSLELRSCSSPHNYGFGRERCDSLPTRNGTLSESSNQTYFGSNHGLRSNTISGIRPHSTNKHSNSPTFTMPLRCSESEESSISVDESDDNGSFSHYRLNTRSSETAIPEENIDDFASAELFSKVTEQNVSDENYIPMNPVNPTDAIHEKEKADMQRLEDASLHFNFPEHASEKLAKDFDLDSDNQCCRPIRAYSIGNKVEHLKFNKRLGHLNDTGQNPNRVRAYSVGSKSKIPRCDLQRVVLVEDNKHEFTANRSQSSITKEGTSYGSSANRQKKSTSAPLLSLKNQINSDRMSDLMEIDFSQATNLEKQKFIKNNEIPKYIENVFPKAPRTDSSSLTLHATSQKDIFNGTKLNNTAITSEDGYLEMKPVGNGYTPSSNCLPMKVEKLKLSDYQTAPPLTATAAPVHDLNKISTYNISAEKWREQPSRSEEKKSNSPLNDNTFSSKPTNVESTSKSHDVHSANQIDCEKVCAQSSDKLNNHLADKIVENNNLDIGGHEEKKLVHSISSEDYTQIKDKSNDFTKFNEAGYKILQIKSDSSLISSKLYQKGIHKDNLERSQRLTESVNTIPDNATATAVSSSSLTKFNINSAKPAAAADSRSTGTDPSTPQNILQIKDLNFPSRSSSRISQPELHYASLDLPHCSGQNPAKYLKRGSRESPPVSACPEDGNTYAKIDFDQSDSSSSSSNIFNT
B1 was tested, and the binding [1] was “binds” and the binding [2] was “binds”.
